No constants are given. Whether binding was seen depends on the method and setting. Binding seen in cells or lysates may run through a third protein. These calls come from enrichment with a bait or labelling near it, and not all partners need be listed. Where a sequence is shown, tags or fusion partners need not be part of it.

This passage reports binding results from publication doi:10.1101/2021.06.16.448656.

In assay [1] the target is T1, γ1-COP-ultraID (γ1-COP subunit of coatomer with ultraID fused to its C-terminus) (UniProt Q9QZE5).
T1 sequence: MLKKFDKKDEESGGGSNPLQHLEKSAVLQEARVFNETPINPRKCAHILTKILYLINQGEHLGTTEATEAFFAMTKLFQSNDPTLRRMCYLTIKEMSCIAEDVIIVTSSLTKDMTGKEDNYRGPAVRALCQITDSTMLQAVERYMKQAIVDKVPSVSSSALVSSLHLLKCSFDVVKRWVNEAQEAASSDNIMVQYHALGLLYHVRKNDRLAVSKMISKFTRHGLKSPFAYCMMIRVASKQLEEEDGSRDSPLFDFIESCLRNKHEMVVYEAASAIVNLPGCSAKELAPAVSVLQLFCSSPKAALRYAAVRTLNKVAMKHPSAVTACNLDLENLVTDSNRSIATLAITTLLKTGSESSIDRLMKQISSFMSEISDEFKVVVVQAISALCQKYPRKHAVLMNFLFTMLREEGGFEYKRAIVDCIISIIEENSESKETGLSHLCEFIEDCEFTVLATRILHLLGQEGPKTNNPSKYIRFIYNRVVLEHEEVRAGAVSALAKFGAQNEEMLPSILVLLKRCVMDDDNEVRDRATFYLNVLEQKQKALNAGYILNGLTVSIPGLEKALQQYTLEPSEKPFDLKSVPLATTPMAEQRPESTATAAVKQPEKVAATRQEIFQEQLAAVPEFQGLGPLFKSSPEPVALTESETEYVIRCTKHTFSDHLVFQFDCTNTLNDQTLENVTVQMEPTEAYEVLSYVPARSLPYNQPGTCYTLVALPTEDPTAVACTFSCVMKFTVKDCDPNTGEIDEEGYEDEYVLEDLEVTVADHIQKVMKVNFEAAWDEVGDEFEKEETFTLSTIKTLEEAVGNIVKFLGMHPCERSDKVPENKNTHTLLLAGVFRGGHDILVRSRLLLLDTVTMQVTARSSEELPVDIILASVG
Nature of the assay: proximity labelling.

Assay [2] addresses T2, γ2-COP-ultraID (γ2-COP subunit of coatomer with ultraID fused to its C-terminus) (UniProt Q9QXK3).
T2 sequence: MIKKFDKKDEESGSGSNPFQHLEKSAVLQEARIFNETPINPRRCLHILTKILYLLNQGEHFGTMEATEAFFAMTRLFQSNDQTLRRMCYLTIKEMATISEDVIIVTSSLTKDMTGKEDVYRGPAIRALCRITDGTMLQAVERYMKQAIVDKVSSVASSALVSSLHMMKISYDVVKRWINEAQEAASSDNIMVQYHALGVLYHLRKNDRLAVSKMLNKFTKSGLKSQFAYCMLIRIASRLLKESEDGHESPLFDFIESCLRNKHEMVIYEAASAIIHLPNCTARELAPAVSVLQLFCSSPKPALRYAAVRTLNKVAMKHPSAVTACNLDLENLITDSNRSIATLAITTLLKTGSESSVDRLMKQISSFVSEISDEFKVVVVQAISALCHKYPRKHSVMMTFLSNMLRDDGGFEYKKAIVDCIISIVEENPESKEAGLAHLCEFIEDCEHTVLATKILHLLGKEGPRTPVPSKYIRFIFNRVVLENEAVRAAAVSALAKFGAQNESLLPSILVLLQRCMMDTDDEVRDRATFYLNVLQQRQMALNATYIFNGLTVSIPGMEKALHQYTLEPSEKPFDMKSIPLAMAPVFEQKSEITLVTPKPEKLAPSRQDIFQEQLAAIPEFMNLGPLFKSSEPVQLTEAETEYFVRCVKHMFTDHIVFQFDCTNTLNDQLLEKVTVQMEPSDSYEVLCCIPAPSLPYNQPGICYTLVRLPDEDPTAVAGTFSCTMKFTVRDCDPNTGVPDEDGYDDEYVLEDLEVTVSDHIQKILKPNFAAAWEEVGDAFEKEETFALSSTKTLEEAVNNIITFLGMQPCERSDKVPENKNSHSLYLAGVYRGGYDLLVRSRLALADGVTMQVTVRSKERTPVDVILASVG
Nature of the assay: proximity labelling.

B1: GCC88 (protein, UniProt Q9D4H2 1-778)
chain: MEKFGMNFGGGPSKKDLLETIETQKKQLLQYQARLKDVVRAYKSLLKEKEALEASIKVLSVSHEADVGLSGVQPPGLTFPDSVDDRCSTHSEDSTGTATSLDTAASLTSVKGEFGVEDDRAARGPLPPKSEEASGSESGVSSSSGDGPSAGSEMDKRVHQLKTQLATLTSSLATVTQEKSRMEASYLADKKKMKQDLEDANKKAEEERGRLEGDLKVLQEQIAETKARLITQQHDRAQEQSDHALMLRELQKLLQEERTQRQDLELRLEETREALAGRAYAADQVEGFELQTKQLTREVEELKGELQTIRDEKNRPDPRLQELQQEAARLKSHFQAQLQQEMRKTALAEDQLRQQSQVEEQRVAALESQISEVSELLGTYEKAKQKDQLAIQKLKERLLQLDLENKTLALAASSRSSLDIHGDESSLDINVLKDKMEKLKKLLQVAARKSQVTLDVEKLCDPEIMANSEAADGEKATALYYQQELKQLKEEFERYKMRAQVVLKSKNTKDGSLGKELEAAQEQLAELKDKYISLRLSCEELESQHQQEAEDWKQELARLQQLHRQELERSQLDFRDRTLKLEEELHKQRDRALAVLAEKDLELEQLRSVALSSGLPGRRSPVGGVGGGGLGDPADTASSDSLTQALQLAAANEPTFFLYAEQLARKEVEITSLRKQKHRLEVEAHQLQERLLEEGERHREEVGALQSHIEKNMRDQSREGANLEYLKNIIYRFLTLPDSLGRQQTLTAILTILHFSPEEKQVLMRLPSGGSWWPSGKR
Consider B1, for which the binding entry in assay [1] and in assay [2] was “binds” each time.

B2: TMF (protein, UniProt B9EKI3 1-1091)
chain: MSWFNASQLSSFAKQALSQAQKSIDRVLDIQEEEPSAWAEAIPYGEPGISPPVSGGWDTSTWGLNSTSSEPQSPPTASQAITKPVRRTVVDESENFFSAFLSPSDAHTIQKSPVVSKPPSKSQRPEEEVKSSLQESSSPGQSRVSETAEVRDSVCVSGETSAVGTPSPVPEDKHEETAGEESEVKVPTVRLKASENVVNVNTTEDVSTTSTQSLTAETKDMALEPKEQKHEDRQSNTPSPPVSSFSSGTSTTSDIEVLDHESVISESSASSRQETSDAKSSLHLMQTSFQLLSASACPEYSRLDDFQKLNESCCSSDAFERIDSFSVQSLDSRSVSEINSDDELPGKGYALVPIIVSPSTPKTKVVESTEENAEEEEGNETLVAPSEEAELEESGRSATPVNCDQPDILASPTAGSGGHSASGPATEQCEAVENQPKAPPEKEDVCKTVEFLNEKLEKRETQLLSLSKEKALLEEAYDNLKDEMFRVKEESSSISSLKDEFTQRIAEAEKKVQLACKERDAAKKEMKTIKEELATRLNSSQTADLLKEKDEQIQGLMEEGEKLSKQQLHNSNIIKKLRAKDKDNENVIAKLNRKAKELEEELQHLRQVLDGKEEVEKQHRENIKKLNSVVERQEKDLGRLQVDMDELEEKSRSTQAALDSAYRELTDLHKANAAKDSEVQEAALRREMKAKEELSGALEKAQEEARQQQEALVLQVGDLRLALQRAEQAAARKEDYLRHEISELQQRLQEAENRNQELSQSVSSTARPLLRQIENLQATLGSQTSSWETLEKSLSDRLGESQTLLAAAVERERAATEELLANKIQMSSVESQNTLLRQENSRLQAQLESEKNKLRKLEDENSRYQVELENLKDEYVRTLEESRKEKTLLSSQLEMERMKVEQERKKTIFTQEALKEKDHKLFSVCSTPTMSRSSSISGVDAAGLQASFLSQDESHDHSFGPMSTSASGSNLYEAVRMGAGSSIIENLQSQLKLREGEISHLQLEISNLEKTRSIMSEELVKLTNQNDELEEKVKEIPKLRVQLRDLDQRYNTILQMYGEKAEEAEELRLDLEDVKNMYKTQIDELLRQRLS
In the case of B2, the binding entry in assay [1] and in assay [2] was “binds” throughout.
